{"sequences": {"note": "Chains of the proteins cited; added tags and fusions are not shown. Chains listed by the source or under a name are the forms on record and can include a tag or linker.", "Ago2 4-repeat (Drosophila melanogaster), one chain, as listed by the source": "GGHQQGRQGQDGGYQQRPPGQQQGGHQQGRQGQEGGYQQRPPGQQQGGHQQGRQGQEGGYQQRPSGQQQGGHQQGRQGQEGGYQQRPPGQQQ"}, "source": "paper PMC12276012", "about": "“Molecular mechanisms of biomolecular condensate formation in Drosophila melanogaster siRNA biogenesis”", "system": "Ago2 4-repeat (Drosophila melanogaster)", "assay": "NMR (dense phase)", "settings": "protein 3 mM, condensed with hairpin DNA; NMR: 20 mM sodium phosphate pH 6.5, PS-I or PS-II buffer (50-500 mM NaCl), 292 K for Loqs-PD deltaC; recombinant protein; protein details: His6 tag cleaved by TEV; folded or branched DNA", "note": "Construct, isoform or probe ends are uncertain for at least one entry. At least one verdict was read from the data and is not stated in words by the source.", "data": [{"sequence": "GGAGCTTTCAAAATGATCTCCGTGAGGAGATCATTTTGAAAGCTCCTATAGTGAGTCGTATTA [21 bp hairpin dsDNA]", "values": [{"measurement": "binding result", "value": "binds"}]}]}
